Results are given in words; binding and its absence hold for the method and conditions named. Binding seen in cells or lysates may run through a third protein. A yes stands for co-enrichment or nearness to the bait. Other partners may have been found. Tags and fused reporters may be left off the sequences shown.
Target: GFP-TNFR1 (UniProt P19438)
Test: affinity purification with mass spectrometry; GFP-TNFR1-overexpressing Huh7 cell lysates precipitated with magnetic beads conjugated with GFP; within 2 h of TNF-α stimulation; mass spectrometry

Chains of the proteins cited; added tags and fusions are not shown. Residues count along the entry.
UniProt P19438, residues 30-455: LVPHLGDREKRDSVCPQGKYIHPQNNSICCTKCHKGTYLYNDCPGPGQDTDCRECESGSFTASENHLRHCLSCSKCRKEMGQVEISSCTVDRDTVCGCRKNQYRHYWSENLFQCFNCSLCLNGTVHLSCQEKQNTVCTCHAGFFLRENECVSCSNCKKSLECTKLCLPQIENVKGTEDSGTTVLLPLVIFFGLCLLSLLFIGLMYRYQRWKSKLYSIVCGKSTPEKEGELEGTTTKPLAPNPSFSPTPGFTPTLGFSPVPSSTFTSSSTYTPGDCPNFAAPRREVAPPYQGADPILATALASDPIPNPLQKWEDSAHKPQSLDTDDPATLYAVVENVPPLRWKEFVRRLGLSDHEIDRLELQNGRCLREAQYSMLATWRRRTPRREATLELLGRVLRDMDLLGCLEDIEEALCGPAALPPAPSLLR

binding: binds
B1: HRG (histidine-rich glycoprotein), found by mass spectrometry in the GFP-TNFR1 precipitate (protein, UniProt P04196 19-525)
chain: VSPTDCSAVEPEAEKALDLINKRRRDGYLFQLLRIADAHLDRVENTTVYYLVLDVQESDCSVLSRKYWNDCEPPDSRRPSEIVIGQCKVIATRHSHESQDLRVIDFNCTTSSVSSALANTKDSPVLIDFFEDTERYRKQANKALEKYKEENDDFASFRVDRIERVARVRGGEGTGYFVDFSVRNCPRHHFPRHPNVFGFCRADLFYDVEALDLESPKNLVINCEVFDPQEHENINGVPPHLGHPFHWGGHERSSTTKPPFKPHGSRDHHHPHKPHEHGPPPPPDERDHSHGPPLPQGPPPLLPMSCSSCQHATFGTNGAQRHSHNNNSSDLHPHKHHSHEQHPHGHHPHAHHPHEHDTHRQHPHGHHPHGHHPHGHHPHGHHPHGHHPHCHDFQDYGPCDPPPHNQGHCCHGHGPPPGHLRRRGPGKGPRPFHCRQIGSVYRLPPLRKGEVLPLPEANFPSFPLPHHKHPLKPDNQPFPQSVSESCPGKFKSGFPQVSMFFTHTFPK
